Strings that start with PEPTIDE1 are HELM notation: dots part the residues, brackets hold end groups and non-standard residues. Non-standard residues stand in square brackets, D forms with d. *: point of attachment. Biotin = O=C1N[C@H]2[C@H](CS[C@H]2CCCCC(=O)*)N1; Dap = NC[C@H](N)C(=O)O
Test: general procedure: Fmoc solid-phase peptide synthesis; Rink amide ChemMatrix resin; TBTU (coupling method 1); PyBOP/HOAt/DIEA for cargo and linker couplings
Conditions: for isolated yield / crude yield: whole synthesis; for crude yield: synthesis
[1] = synthesis and purification, several disulfide bridges, sequence written open
[2] = after synthesis and purification

With “5(6)-Carboxyfluorescein-Cys-Asn-Cys-Lys-Ala-Pro-Glu-Thr-Ala-Leu-Cys-Ala-Ala-Ala-Cys-His-NH2 (CNCKAPETALCAAACH; 5(6)-carboxyfluorescein; C-terminal amide; printed: Cys-Asn-Cys-Lys-Ala-Pro-Glu-Thr-Ala-Leu-Cys-Ala-Ala-Ala-Cys-His-)” as the substance, how does the isolated yield [1] read?
The isolated yield was 3%.

Which isolated yield [1] does the source give for “5(6)-Carboxyfluorescein-Gly-Cys-Asn-Cys-Lys-Ala-Pro-Glu-Thr-Ala-Leu-Cys-Ala-Ala-Ala-Cys-His-NH2” here?
Its isolated yield is 5%.

Which isolated yield (synthesis and purification, side-chain lactam ring, sequence written open) does the source give for “5(6)-Carboxyfluorescein-Gly-Dap-Lys-Ala-Pro-Glu-Thr-Ala-Leu-Cys-Asp-NH2” here?
The isolated yield was 7%.

Which isolated yield (synthesis and purification) does the source give for “Biotin-CNCKAPETALCAAACH-NH2 (cysteine pairing not given here)” here?
The isolated yield was 5%.

With “H-CKAPETALC-NH2 (cysteine pairing not given here)” as the substance, how does the isolated yield (synthesis and purification, one disulfide bridge, sequence written open) read?
The isolated yield was 10%.

For “H-CNCKAPETALCAAACHGLPFFD-NH2 (cysteine pairing not given here)”, which isolated yield (synthesis and purification) is on record?
Its isolated yield is 7%.

For H-C[Dap]KAPETALD-NH2, which isolated yield [2] is on record?
The isolated yield was 9%.

For “H-Cys-Lys-Ala-Pro-Glu-Thr-Ala-Leu-Cys-NH2 with a lanthionine bridge linking the two terminal residues of the peptide (CKAPETALC; printed: Cys-Lys-Ala-Pro-Glu-Thr-Ala-Leu-Cys-)”, which step yield (late stage modification step, transformation from Ap5ba after purification) is on record?
The step yield was 18%.

For “H-C≡C(CH2)rC(C=O)-Cys-Asn-Cys-Lys-Ala-Pro-Glu-Thr-Ala-Leu-Cys-Ala-Ala-Ala-Cys-His-NH2”, which isolated yield (synthesis and purification) is on record?
Its isolated yield is 4%.

With “H-C≡C(CH2)rC(C=O)-Cys-Lys-Ala-Pro-Glu-Thr-Ala-Leu-Cys-NH2” as the substance, how does the crude yield read?
Its crude yield is 35%.

Which crude yield does the source give for “H-LPFFDGCKAPETALC-NH2 (cysteine pairing not given here)” here?
The crude yield was 30%.

Which isolated yield (synthesis and purification) does the source give for “PEPTIDE1{C.N.C.K.A.P.E.T.A.L.C.A.A.A.C.H.[am]}$PEPTIDE1,PEPTIDE1,1:R3-11:R3|PEPTIDE1,PEPTIDE1,3:R3-15:R3$$$V2.0” here?
The isolated yield was 5%.

Which isolated yield (synthesis and purification) does the source give for PEPTIDE1{K.A.P.E.T.A.L.[am]}$$$$V2.0 here?
Its isolated yield is 30%.

For “PEPTIDE1{L.P.F.F.D.G.C.N.C.K.A.P.E.T.A.L.C.A.A.A.C.H.[am]}$PEPTIDE1,PEPTIDE1,7:R3-17:R3|PEPTIDE1,PEPTIDE1,9:R3-21:R3$$$V2.0”, which isolated yield (synthesis and purification) is on record?
Its isolated yield is 3%.

Which isolated yield (synthesis and purification) does the source give for “PEPTIDE1{[Dap].K.A.P.E.T.A.L.D.K.Q.I.E.I.K.K.F.K.[am]}$PEPTIDE1,PEPTIDE1,1:R3-9:R3$$$V2.0” here?
Its isolated yield is 6%.

For “PEPTIDE1{[Dap].K.A.P.E.T.A.L.D.[am]}$PEPTIDE1,PEPTIDE1,1:R3-9:R3$$$V2.0”, which crude yield is on record?
The crude yield was 40%.

For “PEPTIDE1{[Dopa].C.K.A.P.E.T.A.L.C.[am]}$PEPTIDE1,PEPTIDE1,2:R3-10:R3$$$V2.0”, which crude yield is on record?
The crude yield was 20%.

With “PEPTIDE1{[Dopa].C.N.C.K.A.P.E.T.A.L.C.A.A.A.C.H.[am]}$PEPTIDE1,PEPTIDE1,2:R3-12:R3|PEPTIDE1,PEPTIDE1,4:R3-16:R3$$$V2.0” as the substance, how does the isolated yield (synthesis and purification) read?
The isolated yield was 4%.

For “PEPTIDE1{[Dopa].[Dap].K.A.P.E.T.A.L.D.[am]}$PEPTIDE1,PEPTIDE1,2:R3-10:R3$$$V2.0”, which isolated yield (synthesis and purification) is on record?
The isolated yield was 8%.

With “maleimide-(CH2)6-C(=O)-Dap-Lys-Ala-Pro-Glu-Thr-Ala-Leu-Asp-NH2” as the substance, how does the isolated yield [2] read?
Its isolated yield is 10%.

With “sulforhodamine b-Gly-Cys-Asn-Cys-Lys-Ala-Pro-Glu-Thr-Ala-Leu-Cys-Ala-Ala-Ala-Cys-His-NH2” as the substance, how does the isolated yield [1] read?
The isolated yield was 1%.

Which crude yield (one disulfide bridge, sequence written open) does the source give for “sulforhodamine b-Gly-Cys-Lys-Ala-Pro-Glu-Thr-Ala-Leu-Cys-NH2” here?
The crude yield was 4%.

Source: patent EP3016671B1 (Universitat de Barcelona, priority 2013, dated 2015)
